Results are given in words; binding and its absence hold for the method and conditions named. Binding seen in cells or lysates may run through a third protein. Where a sequence is shown, tags or fusion partners need not be part of it.
Molecular target: β-glucuronidase fused to the N-terminus of SCFP3A (pN:GUS) (UniProt P05804)
Test: split reporter

Chains of the proteins cited; added tags and fusions are not shown.
UniProt P05804: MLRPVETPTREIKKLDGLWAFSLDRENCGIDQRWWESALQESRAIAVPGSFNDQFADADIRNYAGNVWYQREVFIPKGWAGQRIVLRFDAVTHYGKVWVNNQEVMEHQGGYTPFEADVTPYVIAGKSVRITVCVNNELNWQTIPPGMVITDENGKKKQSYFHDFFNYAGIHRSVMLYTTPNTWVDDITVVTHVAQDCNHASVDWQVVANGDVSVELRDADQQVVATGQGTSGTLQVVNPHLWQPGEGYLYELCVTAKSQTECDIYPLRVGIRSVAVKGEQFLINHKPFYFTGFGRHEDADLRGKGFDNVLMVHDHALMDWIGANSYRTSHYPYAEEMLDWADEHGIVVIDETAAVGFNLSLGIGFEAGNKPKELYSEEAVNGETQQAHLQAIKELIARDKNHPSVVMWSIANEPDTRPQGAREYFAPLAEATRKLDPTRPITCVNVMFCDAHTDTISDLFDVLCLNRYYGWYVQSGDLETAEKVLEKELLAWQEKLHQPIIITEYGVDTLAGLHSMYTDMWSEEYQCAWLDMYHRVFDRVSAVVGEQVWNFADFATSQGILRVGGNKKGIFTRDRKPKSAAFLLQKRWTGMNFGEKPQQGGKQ

B1: AtSIZ1 fused to SCFP3A amino acids 156-239 (pC:AtSIZ1) (enzyme, UniProt Q680Q4 1-884)
chain: MDLEANCKEKLSYFRIKELKDVLTQLGLSKQGKKQELVDRILTLLSDEQAARLLSKKNTVAKEAVAKLVDDTYRKMQVSGASDLASKGQVSSDTSNLKVKGEPEDPFQPEIKVRCVCGNSLETDSMIQCEDPRCHVWQHVGCVILPDKPMDGNPPLPESFYCEICRLTRADPFWVTVAHPLSPVRLTATTIPNDGASTMQSVERTFQITRADKDLLAKPEYDVQAWCMLLNDKVLFRMQWPQYADLQVNGVPVRAINRPGGQLLGVNGRDDGPIITSCIRDGVNRISLSGGDVRIFCFGVRLVKRRTLQQVLNLIPEEGKGETFEDALARVRRCIGGGGGDDNADSDSDIEVVADFFGVNLRCPMSGSRIKVAGRFLPCVHMGCFDLDVFVELNQRSRKWQCPICLKNYSVEHVIVDPYFNRITSKMKHCDEEVTEIEVKPDGSWRVKFKRESERRELGELSQWHAPDGSLCPSAVDIKRKMEMLPVKQEGYSDGPAPLKLGIRKNRNGIWEVSKPNTNGLSSSNRQEKVGYQEKNIIPMSSSATGSGRDGDDASVNQDAIGTFDFVANGMELDSISMNVDSGYNFPDRNQSGEGGNNEVIVLSDSDDENDLVITPGPAYSGCQTDGGLTFPLNPPGIINSYNEDPHSIAGGSSGLGLFNDDDEFDTPLWSFPSETPEAPGFQLFRSDADVSGGLVGLHHHSPLNCSPEINGGYTMAPETSMASVPVVPGSTGRSEANDGLVDNPLAFGRDDPSLQIFLPTKPDASAQSGFKNQADMSNGLRSEDWISLRLGDSASGNHGDPATTNGINSSHQMSTREGSMDTTTETASLLLGMNDSRQDKAKKQRSDNPFSFPRQKRSNNEQDHQTRHRSLNKICIILCAGKN
  binding: no binding

Source: doi:10.1101/725697
